The values that follow come from patent publication US12396963B2, “Cannabidiol-type cannabinoid compound” (JAZZ PHARMACEUTICALS RESEARCH UK LIMITED, priority 2019, dated 2025).

Data set [1] has as its system mouse model of generalised seizure. Put plainly: Maximal electroshock seizure threshold (MEST) test in the mouse, Example 3. The conditions noted are these: 2.5 mg/kg i.p., 30 min pre-treatment, vehicle CC50 22.3 mA. The protocol:
The efficacy of CBD-C1 was tested in a mouse model of generalised seizure, the maximal electroshock seizure threshold (M EST) test, as in Example 2.
Naïve mice were acclimatised to the procedure room in their home cages for up to 7 days, with food and water available ad libitum.
All animals were weighed at the beginning of the study and randomly assigned to treatment groups based on a mean distribution of body weight across groups.
The first animal within a treatment group was given a shock at the expected or estimated CC50 current. For subsequent animals, the current was lowered or raised depending on the convulsions outcome from the preceding animal.
Data generated from each treatment group were used to calculate the CC50±SEM values for the treatment group.
Vehicle: (5% ethanol, 5% solutol, 90% Saline) was prepared as follows: 2 mL of ethanol, 2 mL of solutol were warmed to 60° C., in 36 mL of saline (1:1:18).
The test compound, CBD-C1 was prepared according to the method described in Example 1. […]
CBD-C1 effects were also calculated as percentage change in CC50 from the vehicle control group.
Significant difference between drug-treated animals and controls were assessed according to Litchfield and Wilcoxon (1949).

The test system of a further data set is mouse model of seizure. Put plainly: Maximal electroshock seizure threshold (MEST) test in the mouse, Example 2. The conditions noted are these: 2.5 mg/kg i.p., 30 min pre-treatment, vehicle CC50 20.0 mA. How it is done:
The efficacy of CBD-C1 was tested in a mouse model of seizure, the maximal electroshock seizure threshold (MEST) test.
The maximal electroshock seizure threshold (MEST) test is widely utilized preclinically to evaluate pro- and anti-convulsant properties of molecules (Loscher et al., 1991).
In the MEST test the ability of a drug to alter the seizure threshold current required to induce hind limb tonic extensor convulsions is measured according to an “up and down” method of shock titration (Kimball et al., 1957). An increase in seizure threshold is indicative of anti-convulsant effect.
Naïve mice were acclimatised to the procedure room in their home cages, with food and water available ad libitum.
Animals were dosed i.p. according to dose group.
The vehicle (10 ml/kg i.p. 60 min pre-treatment time) was 1:1:18 vehicle 5% ethanol, 5% kolliphor EL, 90% saline. […]
Mice were individually assessed for the production of a tonic hind limb extensor seizure using a Hugo Sachs Electronik stimulator, which delivered an adjustable constant current (1-300 mA) of 0.1 s duration via corneal electrodes. […]
Induction of seizure is measured as an all-or-nothing effect scored as either present (+) or absent (0) for each animal. […]
Data was analysed by comparing treated groups with the appropriate vehicle control using Fisher's Exact Probability tests.

Consider `CN1C(=O)CN=C(c2ccccc2)c2cc(Cl)ccc21` [Diazepam, diazepam, reference compound], for which the “CC50 ± SEM” value worked out at 77.5 ± 0.4 mA in data set [1] and 77.5 mA in data set [1] (listed as diazepam). For the same molecule, the “CC50 +/- SEM” value in the data set on mouse model of seizure is reported as 33.5 +/− 4.7 mA; in the data set with mouse model of seizure (listed as diazepam) it was 33.5 mA.
